Data published in patent US11771766B2, “Drug delivery system containing phospholipid and cholesterol” (Taiwan Liposome Co., Ltd, priority 2009, dated 2023).

Test: Vitreous DSP concentration after intravitreal injection, by UPLC (Example 8)
Assay type: in vivo, Rabbits
Details: 2 h to 35 d after intravitreal injection, DSP dose 0.2 mg
Description: Rabbits were injected intravitreally with either dexamethasone sodium phosphate (DSP) alone (control rabbits) or DSP mixed with a delivery vehicle containing DOPC/Cholesterol/DOPG at a ratio 67.5/25/7.5 (test rabbits). Both eyes of each rabbit were injected intravitreally with 50 μl of DSP or the DSP-delivery vehicle mixture at a DSP dose of 0.2 mg. Vitreous DSP concentrations of the control rabbits were examined by ultra-performance liquid chromatography (ACQUITY UPLC™) with a photodiode array (PDA) detector at 2 h, 1 d, 4 d, 8 d, and 15 d after the injection and those of the test rabbits were examined at 2 h, 1 d, 4 d, 8 d, 15 d, and 35 d post injection. Two eyes were examined for each time point.

- vitreous concentration of DSP over time (in words, FIG. 3): decreased very rapidly after injection
SMILES: C[C@@H]1C[C@H]2[C@@H]3CCC4=CC(=O)C=C[C@]4(C)[C@@]3(F)[C@@H](O)C[C@]2(C)[C@@]1(O)C(=O)COP(=O)(O)O [Dexamethasone sodium phosphate, dexamethasone sodium phosphate]
